By UniProt entry, the sequences of proteins in these tests, tags left out.
UniProt O14647: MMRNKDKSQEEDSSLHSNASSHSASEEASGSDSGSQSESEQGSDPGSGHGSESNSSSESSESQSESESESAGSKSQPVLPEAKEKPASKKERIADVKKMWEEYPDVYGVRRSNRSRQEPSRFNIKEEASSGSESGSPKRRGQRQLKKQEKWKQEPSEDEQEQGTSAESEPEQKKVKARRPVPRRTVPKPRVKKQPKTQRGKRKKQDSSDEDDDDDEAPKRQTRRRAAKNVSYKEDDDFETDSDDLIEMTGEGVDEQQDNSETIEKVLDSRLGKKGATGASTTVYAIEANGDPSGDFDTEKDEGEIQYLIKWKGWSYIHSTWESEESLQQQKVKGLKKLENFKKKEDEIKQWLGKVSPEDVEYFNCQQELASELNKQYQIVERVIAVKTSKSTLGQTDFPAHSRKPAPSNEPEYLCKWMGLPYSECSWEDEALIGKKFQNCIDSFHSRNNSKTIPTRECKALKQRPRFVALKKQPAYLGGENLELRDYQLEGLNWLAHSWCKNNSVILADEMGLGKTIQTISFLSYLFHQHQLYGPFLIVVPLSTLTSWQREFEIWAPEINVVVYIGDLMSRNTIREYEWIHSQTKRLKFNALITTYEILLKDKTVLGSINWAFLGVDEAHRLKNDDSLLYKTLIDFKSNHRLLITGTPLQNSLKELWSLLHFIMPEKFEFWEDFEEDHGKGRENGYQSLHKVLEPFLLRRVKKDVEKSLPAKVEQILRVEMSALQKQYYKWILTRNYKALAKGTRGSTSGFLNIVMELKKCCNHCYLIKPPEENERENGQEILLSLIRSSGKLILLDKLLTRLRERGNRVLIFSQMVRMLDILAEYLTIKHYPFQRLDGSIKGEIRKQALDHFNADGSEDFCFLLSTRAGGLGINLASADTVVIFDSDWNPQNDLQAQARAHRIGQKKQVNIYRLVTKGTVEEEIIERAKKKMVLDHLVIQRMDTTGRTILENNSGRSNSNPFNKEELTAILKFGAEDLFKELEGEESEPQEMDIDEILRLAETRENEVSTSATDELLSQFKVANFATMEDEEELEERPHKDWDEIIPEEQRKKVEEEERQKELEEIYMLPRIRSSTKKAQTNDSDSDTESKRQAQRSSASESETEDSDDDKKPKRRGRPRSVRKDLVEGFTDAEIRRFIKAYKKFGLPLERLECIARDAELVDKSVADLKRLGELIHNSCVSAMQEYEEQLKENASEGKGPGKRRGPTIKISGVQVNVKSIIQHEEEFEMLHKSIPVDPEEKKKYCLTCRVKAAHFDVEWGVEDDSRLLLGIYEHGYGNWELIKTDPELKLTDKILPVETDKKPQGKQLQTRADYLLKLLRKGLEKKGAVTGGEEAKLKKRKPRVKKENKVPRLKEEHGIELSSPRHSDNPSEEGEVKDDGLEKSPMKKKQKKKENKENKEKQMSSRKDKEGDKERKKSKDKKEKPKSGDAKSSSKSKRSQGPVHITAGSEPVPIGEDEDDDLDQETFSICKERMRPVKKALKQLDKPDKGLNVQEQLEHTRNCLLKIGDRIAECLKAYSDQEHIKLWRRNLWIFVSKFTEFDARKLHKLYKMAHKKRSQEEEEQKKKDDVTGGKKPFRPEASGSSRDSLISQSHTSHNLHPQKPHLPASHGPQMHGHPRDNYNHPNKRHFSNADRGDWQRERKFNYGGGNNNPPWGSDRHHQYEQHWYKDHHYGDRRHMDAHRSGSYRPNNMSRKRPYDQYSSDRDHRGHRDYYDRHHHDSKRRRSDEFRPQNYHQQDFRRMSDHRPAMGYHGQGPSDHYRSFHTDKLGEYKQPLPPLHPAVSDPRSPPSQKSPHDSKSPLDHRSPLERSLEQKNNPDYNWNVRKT
UniProt Q14839: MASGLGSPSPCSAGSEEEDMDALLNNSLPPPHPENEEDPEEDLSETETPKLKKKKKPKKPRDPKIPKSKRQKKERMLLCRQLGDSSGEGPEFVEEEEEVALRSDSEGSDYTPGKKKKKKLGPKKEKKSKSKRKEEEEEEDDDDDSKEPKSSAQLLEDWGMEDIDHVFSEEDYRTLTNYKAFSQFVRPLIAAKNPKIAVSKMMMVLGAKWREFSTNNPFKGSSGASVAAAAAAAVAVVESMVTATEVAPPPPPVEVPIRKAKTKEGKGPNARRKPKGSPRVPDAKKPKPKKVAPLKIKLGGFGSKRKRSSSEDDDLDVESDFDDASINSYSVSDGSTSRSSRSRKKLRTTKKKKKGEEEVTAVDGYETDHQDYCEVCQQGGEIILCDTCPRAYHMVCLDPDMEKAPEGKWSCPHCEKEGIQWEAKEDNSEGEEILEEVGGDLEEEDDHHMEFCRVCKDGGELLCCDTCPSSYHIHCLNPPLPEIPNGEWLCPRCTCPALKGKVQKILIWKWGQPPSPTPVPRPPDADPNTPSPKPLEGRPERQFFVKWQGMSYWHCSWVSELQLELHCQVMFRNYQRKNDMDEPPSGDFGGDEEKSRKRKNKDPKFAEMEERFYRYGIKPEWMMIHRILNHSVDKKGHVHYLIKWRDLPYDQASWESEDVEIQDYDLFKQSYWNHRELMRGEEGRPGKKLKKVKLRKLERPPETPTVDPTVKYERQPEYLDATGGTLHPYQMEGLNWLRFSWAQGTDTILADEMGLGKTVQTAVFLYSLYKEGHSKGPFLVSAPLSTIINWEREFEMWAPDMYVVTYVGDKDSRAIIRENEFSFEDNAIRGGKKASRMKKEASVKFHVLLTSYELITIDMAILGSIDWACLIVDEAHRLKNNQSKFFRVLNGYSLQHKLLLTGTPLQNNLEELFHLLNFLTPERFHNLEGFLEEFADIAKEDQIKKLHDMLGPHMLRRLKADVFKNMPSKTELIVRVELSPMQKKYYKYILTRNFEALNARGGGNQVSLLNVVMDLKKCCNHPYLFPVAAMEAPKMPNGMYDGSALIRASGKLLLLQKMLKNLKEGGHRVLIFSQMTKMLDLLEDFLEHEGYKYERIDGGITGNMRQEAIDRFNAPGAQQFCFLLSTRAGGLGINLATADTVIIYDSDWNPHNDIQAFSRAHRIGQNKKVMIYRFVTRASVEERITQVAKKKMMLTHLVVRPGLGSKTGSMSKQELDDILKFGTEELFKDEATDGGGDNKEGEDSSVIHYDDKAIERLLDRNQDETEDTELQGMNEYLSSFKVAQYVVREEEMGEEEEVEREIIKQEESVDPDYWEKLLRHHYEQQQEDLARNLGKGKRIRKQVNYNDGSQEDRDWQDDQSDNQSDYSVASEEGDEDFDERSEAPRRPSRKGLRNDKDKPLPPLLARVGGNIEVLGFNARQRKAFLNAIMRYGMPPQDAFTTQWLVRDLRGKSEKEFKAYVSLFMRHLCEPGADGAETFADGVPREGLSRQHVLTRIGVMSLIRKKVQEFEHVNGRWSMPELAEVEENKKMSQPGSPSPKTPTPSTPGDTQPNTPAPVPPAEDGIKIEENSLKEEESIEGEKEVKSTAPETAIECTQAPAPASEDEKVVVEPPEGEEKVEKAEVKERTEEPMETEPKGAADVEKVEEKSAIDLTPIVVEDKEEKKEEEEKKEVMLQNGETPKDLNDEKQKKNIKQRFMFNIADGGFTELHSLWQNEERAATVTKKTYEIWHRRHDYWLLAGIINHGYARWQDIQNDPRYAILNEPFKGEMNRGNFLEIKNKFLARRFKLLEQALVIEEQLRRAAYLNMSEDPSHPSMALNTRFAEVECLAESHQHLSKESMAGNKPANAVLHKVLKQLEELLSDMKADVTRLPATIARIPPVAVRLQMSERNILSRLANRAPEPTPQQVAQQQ
UniProt P38159: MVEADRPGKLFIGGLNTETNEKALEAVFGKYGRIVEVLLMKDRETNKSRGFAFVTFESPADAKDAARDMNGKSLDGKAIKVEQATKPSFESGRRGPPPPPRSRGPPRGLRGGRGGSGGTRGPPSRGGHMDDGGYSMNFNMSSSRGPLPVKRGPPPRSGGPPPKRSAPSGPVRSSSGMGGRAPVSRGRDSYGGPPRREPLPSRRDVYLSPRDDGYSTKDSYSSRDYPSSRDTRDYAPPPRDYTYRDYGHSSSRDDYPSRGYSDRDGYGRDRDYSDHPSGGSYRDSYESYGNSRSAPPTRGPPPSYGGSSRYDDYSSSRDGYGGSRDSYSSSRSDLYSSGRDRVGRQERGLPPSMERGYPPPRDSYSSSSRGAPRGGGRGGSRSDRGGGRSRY
UniProt O60264: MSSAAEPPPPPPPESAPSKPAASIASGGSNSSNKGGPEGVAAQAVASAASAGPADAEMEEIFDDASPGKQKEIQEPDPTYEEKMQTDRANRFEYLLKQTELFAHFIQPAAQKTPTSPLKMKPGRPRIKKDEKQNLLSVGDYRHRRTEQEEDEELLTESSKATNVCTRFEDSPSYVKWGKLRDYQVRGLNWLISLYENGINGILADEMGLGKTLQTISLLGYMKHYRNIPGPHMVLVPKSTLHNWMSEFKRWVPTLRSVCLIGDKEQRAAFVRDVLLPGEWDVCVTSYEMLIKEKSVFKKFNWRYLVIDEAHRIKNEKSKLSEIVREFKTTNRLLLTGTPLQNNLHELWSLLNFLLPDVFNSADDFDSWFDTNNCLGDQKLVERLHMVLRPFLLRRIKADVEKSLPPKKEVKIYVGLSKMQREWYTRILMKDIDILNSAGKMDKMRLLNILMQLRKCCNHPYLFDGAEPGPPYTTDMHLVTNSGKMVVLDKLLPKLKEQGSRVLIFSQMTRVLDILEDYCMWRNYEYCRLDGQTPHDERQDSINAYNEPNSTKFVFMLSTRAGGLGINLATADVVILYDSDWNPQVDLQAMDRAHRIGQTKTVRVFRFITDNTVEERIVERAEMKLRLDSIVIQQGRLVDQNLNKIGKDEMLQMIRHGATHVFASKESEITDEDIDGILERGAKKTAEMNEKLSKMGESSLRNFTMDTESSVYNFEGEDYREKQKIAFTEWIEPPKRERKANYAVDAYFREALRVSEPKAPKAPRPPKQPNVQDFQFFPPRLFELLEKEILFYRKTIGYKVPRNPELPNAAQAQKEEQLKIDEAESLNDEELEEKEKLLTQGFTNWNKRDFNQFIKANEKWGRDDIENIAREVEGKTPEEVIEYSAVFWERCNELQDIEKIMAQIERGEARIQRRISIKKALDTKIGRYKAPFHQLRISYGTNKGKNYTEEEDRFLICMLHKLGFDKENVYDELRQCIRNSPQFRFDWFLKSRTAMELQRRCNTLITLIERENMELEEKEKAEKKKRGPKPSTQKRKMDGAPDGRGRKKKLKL
UniProt Q13242: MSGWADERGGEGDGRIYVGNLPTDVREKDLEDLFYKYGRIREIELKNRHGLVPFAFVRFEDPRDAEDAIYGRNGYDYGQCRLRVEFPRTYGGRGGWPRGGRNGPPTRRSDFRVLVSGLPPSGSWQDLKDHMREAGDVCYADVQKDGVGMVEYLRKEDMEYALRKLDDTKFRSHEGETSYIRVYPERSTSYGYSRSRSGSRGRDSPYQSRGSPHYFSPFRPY
UniProt P11387: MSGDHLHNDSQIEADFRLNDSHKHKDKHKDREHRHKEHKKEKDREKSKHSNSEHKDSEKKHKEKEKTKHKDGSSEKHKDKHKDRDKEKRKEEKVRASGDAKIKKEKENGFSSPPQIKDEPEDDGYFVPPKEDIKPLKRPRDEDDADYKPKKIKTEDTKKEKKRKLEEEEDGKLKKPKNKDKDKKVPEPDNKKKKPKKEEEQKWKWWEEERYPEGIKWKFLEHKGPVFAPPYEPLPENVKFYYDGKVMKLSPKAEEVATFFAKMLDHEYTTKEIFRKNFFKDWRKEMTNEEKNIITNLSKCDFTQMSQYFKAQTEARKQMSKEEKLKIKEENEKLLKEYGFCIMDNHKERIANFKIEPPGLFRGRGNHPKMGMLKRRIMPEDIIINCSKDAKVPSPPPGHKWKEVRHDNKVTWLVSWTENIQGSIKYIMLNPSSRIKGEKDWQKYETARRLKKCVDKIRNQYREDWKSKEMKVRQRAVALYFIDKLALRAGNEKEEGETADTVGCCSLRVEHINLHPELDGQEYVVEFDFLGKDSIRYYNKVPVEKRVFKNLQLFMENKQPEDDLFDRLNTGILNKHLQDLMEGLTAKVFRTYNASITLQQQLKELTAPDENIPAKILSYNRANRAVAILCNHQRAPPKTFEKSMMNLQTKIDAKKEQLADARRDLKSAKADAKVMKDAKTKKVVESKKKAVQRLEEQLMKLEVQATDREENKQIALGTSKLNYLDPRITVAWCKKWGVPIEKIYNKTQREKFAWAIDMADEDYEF

According to article PMC12133338:

T1: Kaiso (ZBTB33) (human (endogenous in HCT116)) (UniProt Q86T24)
T1 sequence: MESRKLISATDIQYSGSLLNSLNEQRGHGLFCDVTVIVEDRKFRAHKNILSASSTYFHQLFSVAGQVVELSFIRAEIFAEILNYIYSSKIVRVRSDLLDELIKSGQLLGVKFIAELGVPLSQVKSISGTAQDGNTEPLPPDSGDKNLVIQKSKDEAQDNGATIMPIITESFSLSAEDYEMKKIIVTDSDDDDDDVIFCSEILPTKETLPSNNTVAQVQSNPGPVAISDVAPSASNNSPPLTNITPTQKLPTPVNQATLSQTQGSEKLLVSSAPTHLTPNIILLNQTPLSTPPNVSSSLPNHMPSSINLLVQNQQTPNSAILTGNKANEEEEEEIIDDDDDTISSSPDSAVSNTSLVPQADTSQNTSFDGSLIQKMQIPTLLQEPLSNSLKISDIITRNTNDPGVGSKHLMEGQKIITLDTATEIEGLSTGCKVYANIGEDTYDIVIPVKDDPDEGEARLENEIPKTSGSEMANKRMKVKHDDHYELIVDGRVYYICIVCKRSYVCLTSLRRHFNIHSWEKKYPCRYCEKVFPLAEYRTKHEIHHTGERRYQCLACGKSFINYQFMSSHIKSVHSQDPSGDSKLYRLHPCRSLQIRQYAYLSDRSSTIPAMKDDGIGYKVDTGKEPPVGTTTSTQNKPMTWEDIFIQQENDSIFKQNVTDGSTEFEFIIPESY

B1: PSPC1 (protein, UniProt Q8WXF1 1-523)
chain: MMLRGNLKQVRIEKNPARLRALESAVGESEPAAAAAMALALAGEPAPPAPAPPEDHPDEEMGFTIDIKSFLKPGEKTYTQRCRLFVGNLPTDITEEDFKRLFERYGEPSEVFINRDRGFGFIRLESRTLAEIAKAELDGTILKSRPLRIRFATHGAALTVKNLSPVVSNELLEQAFSQFGPVEKAVVVVDDRGRATGKGFVEFAAKPPARKALERCGDGAFLLTTTPRPVIVEPMEQFDDEDGLPEKLMQKTQQYHKEREQPPRFAQPGTFEFEYASRWKALDEMEKQQREQVDRNIREAKEKLEAEMEAARHEHQLMLMRQDLMRRQEELRRLEELRNQELQKRKQIQLRHEEEHRRREEEMIRHREQEELRRQQEGFKPNYMENREQEMRMGDMGPRGAINMGDAFSPAPAGNQGPPPMMGMNMNNRATIPGPPMGPGPAMGPEGAANMGTPMMPDNGAVHNDRFPQGPPSQMGSPMGSRTGSETPQAPMSGVGPVSGGPGGFGRGSQGGNFEGPNKRRRY
B2: MATR3 (protein, UniProt P43243 1-847)
chain: MSKSFQQSSLSRDSQGHGRDLSAAGIGLLAAATQSLSMPASLGRMNQGTARLASLMNLGMSSSLNQQGAHSALSSASTSSHNLQSIFNIGSRGPLPLSSQHRGDADQASNILASFGLSARDLDELSRYPEDKITPENLPQILLQLKRRRTEEGPTLSYGRDGRSATREPPYRVPRDDWEEKRHFRRDSFDDRGPSLNPVLDYDHGSRSQESGYYDRMDYEDDRLRDGERCRDDSFFGETSHNYHKFDSEYERMGRGPGPLQERSLFEKKRGAPPSSNIEDFHGLLPKGYPHLCSICDLPVHSNKEWSQHINGASHSRRCQLLLEIYPEWNPDNDTGHTMGDPFMLQQSTNPAPGILGPPPPSFHLGGPAVGPRGNLGAGNGNLQGPRHMQKGRVETSRVVHIMDFQRGKNLRYQLLQLVEPFGVISNHLILNKINEAFIEMATTEDAQAAVDYYTTTPALVFGKPVRVHLSQKYKRIKKPEGKPDQKFDQKQELGRVIHLSNLPHSGYSDSAVLKLAEPYGKIKNYILMRMKSQAFIEMETREDAMAMVDHCLKKALWFQGRCVKVDLSEKYKKLVLRIPNRGIDLLKKDKSRKRSYSPDGKESPSDKKSKTDGSQKTESSTEGKEQEEKSGEDGEKDTKDDQTEQEPNMLLESEDELLVDEEEAAALLESGSSVGDETDLANLGDVASDGKKEPSDKAVKKDGSASAAAKKKLKKVDKIEELDQENEAALENGIKNEENTEPGAESSENADDPNKDTSENADGQSDENKDDYTIPDEYRIGPYQPNVPVGIDYVIPKTGFYCKLCSLFYTNEEVAKNTHCSSLPHYQKLKKFLNKLAEERRQKKET
B3: ADAR (protein, UniProt P55265 1-1226)
chain: MNPRQGYSLSGYYTHPFQGYEHRQLRYQQPGPGSSPSSFLLKQIEFLKGQLPEAPVIGKQTPSLPPSLPGLRPRFPVLLASSTRGRQVDIRGVPRGVHLRSQGLQRGFQHPSPRGRSLPQRGVDCLSSHFQELSIYQDQEQRILKFLEELGEGKATTAHDLSGKLGTPKKEINRVLYSLAKKGKLQKEAGTPPLWKIAVSTQAWNQHSGVVRPDGHSQGAPNSDPSLEPEDRNSTSVSEDLLEPFIAVSAQAWNQHSGVVRPDSHSQGSPNSDPGLEPEDSNSTSALEDPLEFLDMAEIKEKICDYLFNVSDSSALNLAKNIGLTKARDINAVLIDMERQGDVYRQGTTPPIWHLTDKKRERMQIKRNTNSVPETAPAAIPETKRNAEFLTCNIPTSNASNNMVTTEKVENGQEPVIKLENRQEARPEPARLKPPVHYNGPSKAGYVDFENGQWATDDIPDDLNSIRAAPGEFRAIMEMPSFYSHGLPRCSPYKKLTECQLKNPISGLLEYAQFASQTCEFNMIEQSGPPHEPRFKFQVVINGREFPPAEAGSKKVAKQDAAMKAMTILLEEAKAKDSGKSEESSHYSTEKESEKTAESQTPTPSATSFFSGKSPVTTLLECMHKLGNSCEFRLLSKEGPAHEPKFQYCVAVGAQTFPSVSAPSKKVAKQMAAEEAMKALHGEATNSMASDNQPEGMISESLDNLESMMPNKVRKIGELVRYLNTNPVGGLLEYARSHGFAAEFKLVDQSGPPHEPKFVYQAKVGGRWFPAVCAHSKKQGKQEAADAALRVLIGENEKAERMGFTEVTPVTGASLRRTMLLLSRSPEAQPKTLPLTGSTFHDQIAMLSHRCFNTLTNSFQPSLLGRKILAAIIMKKDSEDMGVVVSLGTGNRCVKGDSLSLKGETVNDCHAEIISRRGFIRFLYSELMKYNSQTAKDSIFEPAKGGEKLQIKKTVSFHLYISTAPCGDGALFDKSCSDRAMESTESRHYPVFENPKQGKLRTKVENGEGTIPVESSDIVPTWDGIRLGERLRTMSCSDKILRWNVLGLQGALLTHFLQPIYLKSVTLGYLFSQGHLTRAICCRVTRDGSAFEDGLRHPFIVNHPKVGRVSIYDSKRQSGKTKETSVNWCLADGYDLEILDGTRGTVDGPRNELSRVSKKNIFLLFKKLCSFRYRRDLLRLSYGEAKKAARDYETAKNYFKKGLKDMGYGNWISKPQEEKNFYLCPV
B4: NONO (protein, UniProt Q15233 1-471)
chain: MQSNKTFNLEKQNHTPRKHHQHHHQQQHHQQQQQQPPPPPIPANGQQASSQNEGLTIDLKNFRKPGEKTFTQRSRLFVGNLPPDITEEEMRKLFEKYGKAGEVFIHKDKGFGFIRLETRTLAEIAKVELDNMPLRGKQLRVRFACHSASLTVRNLPQYVSNELLEEAFSVFGQVERAVVIVDDRGRPSGKGIVEFSGKPAARKALDRCSEGSFLLTTFPRPVTVEPMDQLDDEEGLPEKLVIKNQQFHKEREQPPRFAQPGSFEYEYAMRWKALIEMEKQQQDQVDRNIKEAREKLEMEMEAARHEHQVMLMRQDLMRRQEELRRMEELHNQEVQKRKQLELRQEEERRRREEEMRRQQEEMMRRQQEGFKGTFPDAREQEIRMGQMAMGGAMGINNRGAMPPAPVPAGTPAPPGPATMMPDGTLGLTPPTTERFGQAATMEGIGAIGGTPPAFNRAAPGAEFAPNKRRRY

What follows are molecules tested against T1, Kaiso (ZBTB33) (human (endogenous in HCT116)) (assay: affinity purification with mass spectrometry; ReCLIP: HCT116 nuclei crosslinked with 0.5 mM DSP and 0.5 mM DTME (protein-protein only, no protein/DNA crosslinking), high-salt nuclear extract, IP with Kaiso monoclonal antibody 6F or 12G on Protein G Dynabeads (mouse IgG control), elution with RIPA + 50 mM DTT, LC-MS/MS).
CHD2 (from UniProt O14647 1-1828) was tested, and the binding was “no binding”. With CHD4 (from UniProt Q14839 1-1912) the binding was “binds”. For RBMX (from UniProt P38159 1-391), the binding was “binds”. With SMARCA5 (from UniProt O60264 1-1052) the binding was “binds”. SRSF9 (from UniProt Q13242 1-221) was tested, and the binding was “binds”. With “TOP1 (topoisomerase 1) (from UniProt P11387 1-765)” the binding was “binds”. In the case of B1, the binding is reported as “binds”. For B2, the binding was “binds”. In the case of B3, the binding is reported as “binds”. In the case of B4, the binding is reported as “binds”.

These are yes or no findings as the source states them, for the method shown. Binding seen in cells or lysates may run through a third protein. These calls come from enrichment with a bait or labelling near it, and not all partners need be listed. A no says only that the protein was not detected with the bait.
